# Results are given in words; binding and its absence hold for the method and conditions named. Binding seen in cells or lysates may run through a third protein. Binding can be weak; no strength is given. Tags and fused reporters may be left off the sequences shown.
# B1: Arabidopsis Pescadillo (PES), YFP^N or YFP^C fusion for BiFC (protein, UniProt Q9LYK7 1-590)
# chain: MPKHYRPTGKKKEGNAARYMTRSQALKHLQVNLNLFRRLCIVKGIFPREPKKKIKGNHHTYYHVKDIAFLMHEPLLEKFREIKTYQKKVKKAKAKKNEELARLLLTRQPTYKLDRLIRERYPTFIDALRDLDDCLTMVHLFAVLPASDRENLEVKRVHNCRRLTHEWQAYISRSHALRKVFVSVKGIYYQAEIEGQKITWLTPHAIQQVFTNDVDFGVLLTFLEFYETLLAFINFKLYHSLNVKYPPILDSRLEALAADLYALSRYIDASSRGMAVEPKVDASFSSQSNDREESELRLAQLQHQLPSSEPGALMHLVADNNKEVEEDEETRVCKSLFKDLKFFLSREVPRESLQLVITAFGGMVSWEGEGAPFKEDDESITHHIIDKPSAGHLYLSRVYVQPQWIYDCVNARIILPTEKYLVGRIPPPHLSPFVDNEAEGYVPDYAETIKRLQAAARNEVLPLPGVGKEDLEDPQNLLYAGVMSRAEEAEAAKNKKKMAAQEKQYHEELKMEINGSKDVVAPVLAEGEGEESVPDAMQIAQEDADMPKVLMSRKKRKLYDAMKISQSRKRSGVEIIEQRKKRLNDTQPSS
# B2: EBNA1 binding protein 2 (EBP2), YFP^N or YFP^C fusion for BiFC (protein, UniProt Q9LUJ5 1-293)
# chain: MSLEEDIVSDDEMNMIDEDDATDSEAESLSDSDTENEITEKLAEPTKTAIYNRDGLLDKLQDISWPEDVDWTHKLTVEIDQGGAVDVNDDLARETAFYTQALEGTREAFGKLNEMGVNFLRPANYYAEMVKSDVHMEKVKSRLLHEKKQIEESEERRKARDNKRMAKEVQSQKMKERAKEKKDNIESVKKWRKQRQQSGFSDKAGEPELDFESGKSFQRGGGKKRPGVSPGDRSGGKGRPTSRMGNKKREFRDSKFGHGGRKGLSKQNTAETTNDFKGGFRGGKASGNKRQKR
# Molecular target: NSN1 with a deletion of the GTP-binding motifs G4-G3 (∆GD), BiFC fusion (Arabidopsis thaliana) (UniProt Q9M8Z5)
# Assay: split reporter; BiFC: proteins co-expressed as YFP^N and YFP^C fusions in N. benthamiana leaves by agroinfiltration; after 48 h protoplasts observed by confocal laser scanning microscopy
row,Molecule,binding
1,B1,binds
2,B2,binds

# Molecular target: NSN1 with a deletion of the C-terminal domain (∆C), BiFC fusion (Arabidopsis thaliana)
# Assay: as above
row,Molecule,binding
1,B1,binds
2,B2,binds

# Molecular target: T1, nucleostemin-like 1 (NSN1), YFP^N or YFP^C fusion for BiFC (Arabidopsis thaliana) (UniProt Q9M8Z5)
# T1 sequence: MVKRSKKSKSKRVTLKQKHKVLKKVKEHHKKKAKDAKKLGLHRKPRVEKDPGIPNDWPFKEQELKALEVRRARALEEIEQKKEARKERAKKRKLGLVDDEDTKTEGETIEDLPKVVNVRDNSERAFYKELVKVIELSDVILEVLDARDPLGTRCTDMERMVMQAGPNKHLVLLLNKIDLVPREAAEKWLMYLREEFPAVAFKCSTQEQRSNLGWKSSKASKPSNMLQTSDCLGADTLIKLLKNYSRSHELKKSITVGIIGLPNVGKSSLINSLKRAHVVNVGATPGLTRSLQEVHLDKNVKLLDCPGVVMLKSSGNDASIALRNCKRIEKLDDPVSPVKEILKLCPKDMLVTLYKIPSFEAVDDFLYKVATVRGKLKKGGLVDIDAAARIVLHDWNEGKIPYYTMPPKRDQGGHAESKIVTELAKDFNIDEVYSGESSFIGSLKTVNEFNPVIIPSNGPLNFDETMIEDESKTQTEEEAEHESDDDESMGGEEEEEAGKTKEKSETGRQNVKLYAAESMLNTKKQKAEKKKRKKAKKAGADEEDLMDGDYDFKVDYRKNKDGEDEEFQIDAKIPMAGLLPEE
# Assay: as above
row,Molecule,binding
1,"N-terminal PES-N domain of PES, BiFC fusion (Arabidopsis) (domain or fragment)",binds
2,"ribosomal protein RPL11, YFP^N fusion for BiFC",no binding
3,"ribosomal protein RPL13, BiFC fusion",binds
4,"ribosomal protein RPL14, BiFC fusion",binds
5,"ribosomal protein RPS6, BiFC fusion",binds
6,"∆PES-N (a PES mutant lacking the PES-N domain), BiFC fusion (Arabidopsis) (domain or fragment)",binds

# From PMC4588883
